The nature of the data set: Plasma concentration when orally administered to humans. The note with it: oral, tested form: K salt.

The source holds more than one record for some entries. Only these are listed. There may be further records. Results that share an entry do not match, cause unknown; they may come from other doses, times, organisms or constructs than stated.

For `COc1ccccc1Oc1c(NS(=O)(=O)C=Cc2ccccc2)nc(-c2ncccn2)nc1OC.[K]` [Compound 1, N-[6-methoxy-5-(2-methoxyphenoxy)-2-(2-pyrimidinyl)-4-pyrimidinyl]-2-phenylethenesulfoneamide•potassium salt], the “AUC ratio Compound 1 (10 mg)/ABT-627 (20 mg)” value was “about 18 fold and 18 fold”.

The values are drawn from patent publication US6774131B1, “Remedies for endothelin-induced diseases” (Yamanouchi Pharmaceutical Co., Ltd., priority 2000, dated 2004).
